Results deposited as PubChem BioAssay AID686937 (Drosophila RNAi Screening Center, 2013)

- Purpose: 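Genes whose loss weakens secretory pathway function in fly cells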 (primary screen)
- Cells: Drosophila S2 cells expressing secreted horseradish peroxidase
- Reagents: long dsRNA against Drosophila genes
- Timing: about 5.5 days (5 days dsRNA, then 12 h reporter induction)
- Challenge: reporter expression induced after 5 days of dsRNA, read 12 h later; inducer not stated
- Detection: 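Chemiluminescent measurement of peroxidase in the medium 12 h after reporter induction, following 5 days of dsRNA, given as a z-score per plate; higher means more secretion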
- Reading the numbers: z-score: higher = more reporter secreted into medium
The screen tested about 23,000 reagents; below is an unselected part of those with a known target gene and a result. 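Reduced-secretion tags in replicate 1 do not always agree with the z-scores; no criterion for assigning the tags was given.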 Further read-outs or replicates are left out here. Not stated in the record: the amount of reagent.

CG42553 [DRSC08356] showed z-score, replicate 1 = 0.14.
Silencing of CG15773 [DRSC18079] resulted in: z-score, replicate 1 = 0.35.
CG18467 [DRSC06758] scored z-score, replicate 1 = -1.54.
Depletion of CG18480 [DRSC01957] gave: z-score, replicate 1 = 0.22.
Silencing of CG7179 [DRSC03020] gave: z-score, replicate 1 = 0.67.
After knock-down of CG12289 [DRSC09874], the record shows z-score, replicate 1 = 0.44.
Against CG14354 [DRSC14817], the entry reads z-score, replicate 1 = 0.33.
plum [DRSC16054] scored z-score, replicate 1 = 0.34.
Depletion of CG9813 [DRSC16569] came out at: z-score, replicate 1 = 0.21.
CG13116 [DRSC02214] gave z-score, replicate 1 = -0.64.
CG13116 [DRSC21945] scored z-score, replicate 1 = -0.21.
Depletion of CG14050 [DRSC18594] gave: z-score, replicate 1 = 0.18.
After knock-down of CG4480 [DRSC02750], the screen gave z-score, replicate 1 = 0.47.
After knock-down of Alp13 (Alkaline phosphatase 13) [DRSC15781] the results were z-score, replicate 1 = 0.5.
For CG17994 [DRSC04877], the entry reads z-score, replicate 1 = 0.32.
For CG17486 [DRSC07752] the deposit lists z-score, replicate 1 = 0.7.
After knock-down of Nrd1 (Nardilysin) [DRSC19830], the screen gave z-score, replicate 1 = 0.21.
After knock-down of CG32407 [DRSC09789] the results were z-score, replicate 1 = 0.33.
Against Mettl3 (Methyltransferase like 3) [DRSC15921], the entry reads z-score, replicate 1 = 0.26.
GNBP3 (Gram-negative bacteria binding protein 3) [DRSC11170] scored z-score, replicate 1 = 0.37.
With knock-down of CG14410 [DRSC19596] the results were z-score, replicate 1 = 0.35.
Against CG13544 [DRSC04186], the entry reads z-score, replicate 1 = 0.07.
Vps33B (Vacuolar protein sorting 33B) [DRSC15722] gave z-score, replicate 1 = 0.66.
With knock-down of ATP6AP2 (ATPase H+ transporting accessory protein 2) [DRSC16420], the screen gave z-score, replicate 1 = -0.87.
For bma (black match) [DRSC09896] the deposit lists z-score, replicate 1 = 0.12.
After knock-down of bma (black match) [DRSC10164] the results were z-score, replicate 1 = 0.48.
ste24a (prenyl protease type I) [DRSC07314] scored z-score, replicate 1 = -0.2.

Sorted by “z-score, replicate 1” (high to low): 2 of the entries above
CG14050 [DRSC18594]: z-score, replicate 1 = 0.18
CG13116 [DRSC21945]: z-score, replicate 1 = -0.21
